Among all 400,000 compounds or so, about 13,000 (3.2%) were called active. Inconclusive results, whose numbers are uncertain, are shown with a selection of clear calls. The call rests on the fitted dose curve; in most records, active means well fitted cell-killing curve with a large enough effect; inconclusive means small, poorly fitted or top-dose-only effect, or effect the other way; inactive means flat fitted curve, though single readings scatter. Where the call is inconclusive, the potency comes from a doubtful curve fit.
assay: qHTS assay for MDR1-selective chemotherapeutics: Primary screen using the drug-selected MDR subline cells KB-V1; details: KB-V1 MDR cells viability, CellTiter-Glo, 72 h; activity change, negative = cytotoxicity: at 46.1 µM (top of the series); further: nearly all actives have a fitted effect of over 60% in size
Summary of the method: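 Luminescent ATP read-out (CellTiter-Glo, 10 min) measures survival of drug-selected KB-V1 MDR cells after 72 h, 37 degrees C compound exposure. Medium: phenol-red-free DMEM, 10% FBS. Values from fitted concentration-response curves.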
On the % scale 0 is the no-effect control and ±100 the full control effect; potency means the concentration at half of the fitted maximal effect.

**Q.** Which “activity change, negative = cytotoxicity” value does the source give for `CCC(C)NC(=O)c1cc2c(Cl)nc3ccc(C)cc3c2s1` (stereo not given) here?
**A.** The value was inactive: 6.73%.

**Q.** Which Potency does the source give for `COc1ccccc1-c1nnc(Nc2nc3c(OC)cccc3s2)o1` here?
**A.** The Potency was inconclusive: 0.206 µM [cytotoxic, full curve, poor fit].

**Q.** For `CC1(C)C(=O)N(CC(=O)Nc2ccc(Cl)cc2)c2ccccc21`, which Potency is on record?
**A.** The Potency was inconclusive: 20.6 µM [cytotoxic, single point].

**Q.** With `Oc1ccccc1O` as the compound, how does the Potency read?
**A.** Its Potency is inconclusive: 29.1 µM [cytotoxic, partial curve, poor fit].

**Q.** With `CC(OC(=O)C1CCN(c2ccc(C(F)(F)F)cn2)CC1)C(=O)NC1CCCCC1C` (stereo not given) as the compound, how does the Potency read?
**A.** The Potency was active: 23.1 µM.

**Q.** Which Potency does the source give for `COC(=O)c1ccc(COc2nc(C)cc(C)c2C#N)o1` here?
**A.** Its Potency is inconclusive: 25.9 µM [cytotoxic, partial curve].

**Q.** Which “activity change, negative = cytotoxicity” value does the source give for `Cc1onc(-c2ccccc2)c1C(=O)N1CCC(C)(C(=O)NS(=O)(=O)C2CC2)C1` (stereo not given) here?
**A.** Its value is inactive: 1.83%.

**Q.** With `CN(c1ccccc1)S(=O)(=O)c1ccc(NC(=S)NC(=O)c2ccccc2)cc1` as the compound, how does the Potency read?
**A.** The Potency was inconclusive: 16.4 µM [cytotoxic, partial curve, poor fit].

**Q.** For `Cc1ccccc1NC(=O)C1CCCN(c2nnc(N3CCCC3=O)s2)C1` (stereo not given), which “activity change, negative = cytotoxicity” value is on record?
**A.** The value was inactive: 2.91%.

**Q.** Which Potency does the source give for `O=C(O)c1cccc(Nc2ncnc3sccc23)c1` here?
**A.** The Potency was inconclusive: 29.1 µM [cytotoxic, single point].

**Q.** For `CN(C)c1ccc(C=O)c(O)c1`, which “activity change, negative = cytotoxicity” value is on record?
**A.** Its value is inactive: -1.25%.

**Q.** With `CCOC(=O)c1c(C)[nH]c(C(=O)OCC(=O)NCCc2ccc(OCC)c(OCC)c2)c1C` as the compound, how does the Potency read?
**A.** The Potency was inconclusive: 5.8 µM [cytotoxic, partial curve].

**Q.** With `COc1ccc(C(=O)c2oc3ccc(OC)cc3c2NC(C)=O)cc1` as the compound, how does the Potency read?
**A.** Its Potency is inconclusive: 20.6 µM [cytotoxic, single point].

**Q.** For `Nc1cccc2c1C(=O)N(CCOc1ccc(F)cc1)C2=O`, which “activity change, negative = cytotoxicity” value is on record?
**A.** Its value is inactive: -14.3%.

**Q.** With `C=CCNC(=O)CSc1cc([N+](=O)[O-])cc(S(=O)(=O)Cc2ccccc2)c1` as the compound, how does the Potency read?
**A.** The Potency was inconclusive: 20.6 µM [cytotoxic, single point].

**Q.** For `Clc1ccc2c(ccc[n+]2CCc2ccccc2)c1`, which Potency is on record?
**A.** Its Potency is inconclusive: 18.4 µM [rising, partial curve, poor fit].

**Q.** For `CCc1cccc(OCC2Cn3c(nc4c3c(=O)[nH]c(=O)n4C)O2)c1` (stereo not given), which Potency is on record?
**A.** The Potency was inconclusive: 3.66 µM [cytotoxic, partial curve, poor fit].

**Q.** Which Potency does the source give for `Cc1cc(C(=O)N/N=C2\CC(=O)CC(C)(C)C2)c(C)n1-c1ccc(F)cc1` here?
**A.** The Potency was inconclusive: 16.4 µM [rising, partial curve, poor fit].

**Q.** For `C/C(=N/NC(=O)C(C)n1nc(C)c([N+](=O)[O-])c1C)c1ccc(OCC(N)=O)cc1` (stereo not given), which “activity change, negative = cytotoxicity” value is on record?
**A.** Its value is inactive: 0%.

**Q.** Which Potency does the source give for `COc1ccc(NC(=O)c2ccccc2NC(=O)c2ccco2)cc1` here?
**A.** The Potency was inconclusive: 32.6 µM [cytotoxic, single point].
